Where a chain is given by its changes, count along the chain named. This is a selection; strong and weak results do not stand in their true shares. Calls are pooled over several reports, among them a noisy single-well screen. This is one part of the list.
Tests used:
Conditions in all cases: stereoisomer not certain
O2T11 = system: T1, O2T11
T1 sequence (whole entry): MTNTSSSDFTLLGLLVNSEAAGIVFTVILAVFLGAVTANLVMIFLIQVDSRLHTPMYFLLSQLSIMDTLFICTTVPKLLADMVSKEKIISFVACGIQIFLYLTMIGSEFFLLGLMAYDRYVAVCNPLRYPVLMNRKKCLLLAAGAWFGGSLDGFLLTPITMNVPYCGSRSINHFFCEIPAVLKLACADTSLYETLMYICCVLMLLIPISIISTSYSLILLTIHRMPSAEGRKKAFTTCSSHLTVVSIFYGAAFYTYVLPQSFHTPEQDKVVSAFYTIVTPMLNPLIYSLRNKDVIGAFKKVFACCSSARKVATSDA
How it was run: (§1)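 Each receptor–molecule pair is labelled responsive or non-responsive (inactive) according to whether the original authors judged the measured signal statistically different from baseline. The data were taken from the main text and supplementary material of published papers and checked for typos and inconsistencies. Assay methods differed by source, with transient luciferase assays in mammalian cell lines being common.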

Chains of the proteins cited; added tags and fusions are not shown. A line that says so, or that is headed by a name, gives the form on record, which may keep a tag or linker.
O4C46, as listed by the source: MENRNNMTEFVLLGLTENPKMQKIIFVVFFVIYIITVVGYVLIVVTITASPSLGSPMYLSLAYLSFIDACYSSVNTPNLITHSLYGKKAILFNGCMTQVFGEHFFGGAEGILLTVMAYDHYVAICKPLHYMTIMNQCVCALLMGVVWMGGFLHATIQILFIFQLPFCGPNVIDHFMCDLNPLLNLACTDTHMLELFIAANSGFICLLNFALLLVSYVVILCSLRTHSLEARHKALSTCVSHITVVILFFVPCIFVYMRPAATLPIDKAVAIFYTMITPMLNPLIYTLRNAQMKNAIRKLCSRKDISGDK
O4A15, as listed by the source: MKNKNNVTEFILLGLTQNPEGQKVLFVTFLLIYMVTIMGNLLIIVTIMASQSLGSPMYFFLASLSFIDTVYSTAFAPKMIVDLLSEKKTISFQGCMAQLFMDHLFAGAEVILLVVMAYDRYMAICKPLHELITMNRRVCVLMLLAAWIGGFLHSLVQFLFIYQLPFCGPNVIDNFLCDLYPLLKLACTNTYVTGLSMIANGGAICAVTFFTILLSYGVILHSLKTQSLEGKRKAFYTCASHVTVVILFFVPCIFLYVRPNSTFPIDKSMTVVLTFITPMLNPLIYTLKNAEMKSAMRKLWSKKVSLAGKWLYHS
O4F17, as listed by the source: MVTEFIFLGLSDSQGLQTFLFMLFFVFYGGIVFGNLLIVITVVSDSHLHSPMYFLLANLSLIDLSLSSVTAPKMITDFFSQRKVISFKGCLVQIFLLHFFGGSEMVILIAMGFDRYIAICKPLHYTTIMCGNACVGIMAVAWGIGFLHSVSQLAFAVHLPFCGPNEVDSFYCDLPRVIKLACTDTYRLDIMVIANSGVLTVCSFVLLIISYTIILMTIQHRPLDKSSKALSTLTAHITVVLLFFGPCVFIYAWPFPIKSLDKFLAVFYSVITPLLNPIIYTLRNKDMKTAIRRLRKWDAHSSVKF

O2T29 [1] = system: T2, O2T29
T2 sequence (whole entry): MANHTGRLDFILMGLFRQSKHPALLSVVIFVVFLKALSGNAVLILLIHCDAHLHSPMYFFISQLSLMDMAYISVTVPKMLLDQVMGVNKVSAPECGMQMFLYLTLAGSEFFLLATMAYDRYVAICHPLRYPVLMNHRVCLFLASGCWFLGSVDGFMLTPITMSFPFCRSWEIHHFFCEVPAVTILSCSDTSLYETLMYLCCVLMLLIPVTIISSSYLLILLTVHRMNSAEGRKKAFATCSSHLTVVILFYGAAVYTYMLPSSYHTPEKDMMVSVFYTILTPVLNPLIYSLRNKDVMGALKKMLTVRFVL
How it was run: as §1

O2T29 [2] = system: T3, O2T29; remark: listed apart in the source
T3 sequence (whole entry): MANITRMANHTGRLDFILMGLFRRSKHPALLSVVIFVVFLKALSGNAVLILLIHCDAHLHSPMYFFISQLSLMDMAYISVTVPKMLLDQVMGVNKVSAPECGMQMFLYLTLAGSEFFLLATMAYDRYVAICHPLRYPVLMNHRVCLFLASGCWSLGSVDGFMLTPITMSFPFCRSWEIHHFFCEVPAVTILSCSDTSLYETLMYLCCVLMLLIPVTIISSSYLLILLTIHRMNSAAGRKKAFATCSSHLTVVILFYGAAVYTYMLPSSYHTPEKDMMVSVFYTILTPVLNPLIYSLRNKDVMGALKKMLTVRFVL
How it was run: as §1

O2T33 = system: T4, O2T33
T4 sequence (whole entry): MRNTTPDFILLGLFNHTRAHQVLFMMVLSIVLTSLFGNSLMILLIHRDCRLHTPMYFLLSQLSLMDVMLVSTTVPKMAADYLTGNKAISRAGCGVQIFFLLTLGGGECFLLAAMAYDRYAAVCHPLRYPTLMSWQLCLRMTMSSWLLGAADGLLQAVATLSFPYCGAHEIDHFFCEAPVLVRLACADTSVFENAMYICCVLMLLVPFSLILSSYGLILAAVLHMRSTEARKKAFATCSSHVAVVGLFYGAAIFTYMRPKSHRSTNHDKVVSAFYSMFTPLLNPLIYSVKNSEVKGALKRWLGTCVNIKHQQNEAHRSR
How it was run: as §1

O2T34 = system: T5, O2T34
T5 sequence (whole entry): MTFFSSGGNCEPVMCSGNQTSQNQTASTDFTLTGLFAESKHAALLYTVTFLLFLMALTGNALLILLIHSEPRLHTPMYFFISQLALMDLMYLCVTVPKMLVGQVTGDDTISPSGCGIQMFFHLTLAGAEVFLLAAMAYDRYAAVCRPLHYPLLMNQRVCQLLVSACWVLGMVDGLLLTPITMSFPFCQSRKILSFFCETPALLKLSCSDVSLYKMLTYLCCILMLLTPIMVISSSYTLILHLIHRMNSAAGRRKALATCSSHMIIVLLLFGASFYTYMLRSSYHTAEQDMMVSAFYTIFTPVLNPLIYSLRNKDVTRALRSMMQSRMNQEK
How it was run: as §1

O2T35 = system: T6, O2T35
T6 sequence (whole entry): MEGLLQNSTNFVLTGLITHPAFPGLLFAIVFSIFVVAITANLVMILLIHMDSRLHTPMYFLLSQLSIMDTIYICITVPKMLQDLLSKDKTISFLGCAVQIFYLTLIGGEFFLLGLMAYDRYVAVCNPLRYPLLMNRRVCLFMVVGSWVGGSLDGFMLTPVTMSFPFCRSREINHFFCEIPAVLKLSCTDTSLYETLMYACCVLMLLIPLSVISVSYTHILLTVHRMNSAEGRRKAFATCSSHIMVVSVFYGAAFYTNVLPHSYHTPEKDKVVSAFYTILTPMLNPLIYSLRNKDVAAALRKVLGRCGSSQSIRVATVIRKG
How it was run: as §1

O4A15 = system: O4A15
How it was run: as §1

O4A47 = system: T7, O4A47
T7 sequence (whole entry): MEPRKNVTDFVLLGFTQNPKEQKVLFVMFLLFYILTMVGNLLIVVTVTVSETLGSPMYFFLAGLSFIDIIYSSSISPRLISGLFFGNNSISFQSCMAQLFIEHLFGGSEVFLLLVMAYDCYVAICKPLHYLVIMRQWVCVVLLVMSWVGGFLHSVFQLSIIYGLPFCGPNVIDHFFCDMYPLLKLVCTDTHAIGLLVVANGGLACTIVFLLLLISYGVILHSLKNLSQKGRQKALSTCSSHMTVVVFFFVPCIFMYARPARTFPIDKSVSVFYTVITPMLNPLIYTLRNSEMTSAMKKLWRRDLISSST
How it was run: as §1

O4C46 = system: O4C46
How it was run: as §1

O4F17 [3] = system: T8, O4F17
T8 sequence (whole entry): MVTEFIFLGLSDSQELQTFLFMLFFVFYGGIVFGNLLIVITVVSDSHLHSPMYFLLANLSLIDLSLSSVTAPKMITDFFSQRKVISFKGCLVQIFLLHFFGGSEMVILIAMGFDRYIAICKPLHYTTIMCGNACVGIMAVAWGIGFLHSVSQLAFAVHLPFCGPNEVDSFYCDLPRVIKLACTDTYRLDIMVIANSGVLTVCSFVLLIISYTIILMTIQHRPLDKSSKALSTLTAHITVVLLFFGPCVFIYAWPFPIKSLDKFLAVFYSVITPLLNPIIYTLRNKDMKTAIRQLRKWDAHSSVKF
How it was run: as §1

O4F17 [4] = system: T9, O4F17; remark: listed apart in the source
T9 sequence (whole entry): T8 sequence (whole entry) with E15G, Q293R
How it was run: as §1

O4F21 = system: T10, O4F21
T10 sequence (whole entry): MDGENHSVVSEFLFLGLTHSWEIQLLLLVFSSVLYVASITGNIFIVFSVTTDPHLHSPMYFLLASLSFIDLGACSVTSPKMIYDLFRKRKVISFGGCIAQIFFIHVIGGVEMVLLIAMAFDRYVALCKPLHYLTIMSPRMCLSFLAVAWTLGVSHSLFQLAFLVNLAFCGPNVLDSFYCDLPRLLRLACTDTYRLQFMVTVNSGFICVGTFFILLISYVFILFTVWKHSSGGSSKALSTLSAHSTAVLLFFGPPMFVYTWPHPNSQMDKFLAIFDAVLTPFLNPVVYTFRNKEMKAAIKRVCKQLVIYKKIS
How it was run: as §1

O51A4 = system: T11, O51A4
T11 sequence (whole entry): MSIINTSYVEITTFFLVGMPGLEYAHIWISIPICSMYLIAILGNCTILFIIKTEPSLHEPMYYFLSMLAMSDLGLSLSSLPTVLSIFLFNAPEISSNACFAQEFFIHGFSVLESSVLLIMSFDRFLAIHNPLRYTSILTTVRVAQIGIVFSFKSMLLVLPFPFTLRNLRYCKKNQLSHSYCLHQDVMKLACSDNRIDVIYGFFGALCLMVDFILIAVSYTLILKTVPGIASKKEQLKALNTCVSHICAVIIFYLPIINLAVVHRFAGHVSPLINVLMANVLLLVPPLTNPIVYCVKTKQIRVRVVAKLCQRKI
How it was run: as §1

O51B4 = system: T12, O51B4
T12 sequence (whole entry): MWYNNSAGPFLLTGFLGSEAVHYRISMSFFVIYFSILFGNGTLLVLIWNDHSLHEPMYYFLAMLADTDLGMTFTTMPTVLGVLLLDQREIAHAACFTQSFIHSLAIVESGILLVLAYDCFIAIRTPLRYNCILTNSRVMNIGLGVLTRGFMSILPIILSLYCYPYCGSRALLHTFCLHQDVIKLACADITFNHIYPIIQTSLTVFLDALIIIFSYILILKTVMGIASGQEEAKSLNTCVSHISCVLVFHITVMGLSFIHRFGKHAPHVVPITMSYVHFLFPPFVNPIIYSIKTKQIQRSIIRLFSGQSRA
How it was run: as §1

O51B5 = system: T13, O51B5
T13 sequence (whole entry): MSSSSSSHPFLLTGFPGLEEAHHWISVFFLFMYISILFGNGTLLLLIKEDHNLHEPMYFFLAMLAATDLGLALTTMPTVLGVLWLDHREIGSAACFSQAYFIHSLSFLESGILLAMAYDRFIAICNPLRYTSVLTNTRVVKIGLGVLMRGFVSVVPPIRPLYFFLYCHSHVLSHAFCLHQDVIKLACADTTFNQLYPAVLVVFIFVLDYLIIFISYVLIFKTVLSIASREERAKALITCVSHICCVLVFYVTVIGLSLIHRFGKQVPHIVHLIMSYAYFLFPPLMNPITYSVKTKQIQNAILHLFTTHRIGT
How it was run: as §1

O51B6 = system: T14, O51B6
T14 sequence (whole entry): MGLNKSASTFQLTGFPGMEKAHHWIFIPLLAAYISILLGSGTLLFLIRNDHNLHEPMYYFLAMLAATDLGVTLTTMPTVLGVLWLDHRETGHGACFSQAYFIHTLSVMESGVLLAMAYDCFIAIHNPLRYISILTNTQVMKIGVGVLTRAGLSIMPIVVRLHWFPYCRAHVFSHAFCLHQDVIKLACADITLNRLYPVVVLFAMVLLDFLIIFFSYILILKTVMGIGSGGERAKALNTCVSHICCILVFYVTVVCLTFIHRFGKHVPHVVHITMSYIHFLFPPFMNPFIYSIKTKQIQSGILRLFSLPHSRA
How it was run: as §1

O51E1 = system: T15, O51E1
T15 sequence (whole entry): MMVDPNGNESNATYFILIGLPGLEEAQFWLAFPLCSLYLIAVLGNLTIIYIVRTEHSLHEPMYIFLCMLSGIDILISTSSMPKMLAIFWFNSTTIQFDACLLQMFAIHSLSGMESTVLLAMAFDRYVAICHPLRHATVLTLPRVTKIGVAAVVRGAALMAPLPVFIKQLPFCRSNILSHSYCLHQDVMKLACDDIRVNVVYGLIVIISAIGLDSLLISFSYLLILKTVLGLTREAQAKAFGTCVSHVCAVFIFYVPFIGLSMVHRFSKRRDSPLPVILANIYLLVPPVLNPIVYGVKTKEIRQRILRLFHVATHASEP
How it was run: as §1

O51F1 = system: T16, O51F1
T16 sequence (whole entry): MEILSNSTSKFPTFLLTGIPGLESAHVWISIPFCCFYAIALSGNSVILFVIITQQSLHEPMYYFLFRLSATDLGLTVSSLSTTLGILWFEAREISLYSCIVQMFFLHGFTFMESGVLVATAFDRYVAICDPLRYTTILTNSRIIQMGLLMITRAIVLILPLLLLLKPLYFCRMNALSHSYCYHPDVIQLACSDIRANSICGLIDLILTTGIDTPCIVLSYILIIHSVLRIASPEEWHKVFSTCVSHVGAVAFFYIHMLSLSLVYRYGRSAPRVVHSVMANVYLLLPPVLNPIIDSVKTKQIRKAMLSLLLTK
How it was run: as §1

O51F2 = system: T17, O51F2
T17 sequence (whole entry): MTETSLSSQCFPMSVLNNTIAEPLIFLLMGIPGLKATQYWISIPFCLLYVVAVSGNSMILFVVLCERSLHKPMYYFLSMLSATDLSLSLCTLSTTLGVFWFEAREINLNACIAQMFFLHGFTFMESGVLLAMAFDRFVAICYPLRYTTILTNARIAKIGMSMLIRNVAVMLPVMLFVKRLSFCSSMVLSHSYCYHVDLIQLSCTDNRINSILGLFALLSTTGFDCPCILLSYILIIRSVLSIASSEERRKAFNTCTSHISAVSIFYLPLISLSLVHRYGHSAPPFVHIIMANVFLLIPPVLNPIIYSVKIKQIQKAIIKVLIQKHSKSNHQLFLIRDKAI
How it was run: as §1

Measured: odorant receptor agonist call

CC=Cc1ccc(O)c(OC)c1
active: O2T33 | O4A47 | O4F21 | O51B4 | O51B5 | O51E1
inactive: all other assays above

O=C1CCCCC1
inactive: O2T11 | O2T29 [2] | O2T34 | O4A15 | O4C46 | O4F17 [3] | O51A4 | O51E1 | O51F1 | O51F2

Reference: the M2OR odorant receptor database
